Where two headings read alike, the source gives them in different places. Results are given in words; binding and its absence hold for the method and conditions named. Binding can be weak; no strength is given. For some assays here: Sequences can lack the tags named with a protein.

Assay [1] has as its target KlSte7 (Ste7 of Kluyveromyces lactis), Gal4-BD fusion (K. lactis) (UniProt Q6CSZ8). Description: two-hybrid; Matchmaker GAL4 system; Ste5 forms on Gal4-AD (pGADT7, AH109), Ste7 orthologs on Gal4-BD (pGBKT7, Y187), diploids on SC-Leu-Trp; quantitative β-galactosidase assay of cell lysate with ONPG; units of the same BD-Ste7 with void pGADT7 subtracted; mean of three colonies.

For assay [2] the target is unchanged. The description is as above. This is another data set of the same source.

“KmSte5ΔS (KmSte5 with the negatively charged segment shortened to the length of that of KlSte5), Gal4-AD fusion (from UniProt A0ABX6ETE1)”: the binding result in assay [1] is recorded as “binds”.

B1: ScSte5 (Ste5 of Saccharomyces cerevisiae), Gal4-AD fusion (protein, UniProt P32917 1-917)
chain: MMETPTDNIVSPFHNFGSSTQYSGTLSRTPNQIIELEKPSTLSPLSRGKKWTEKLARFQRSSAKKKRFSPSPISSSTFSFSPKSRVTSSNSSGNEDGNLMNTPSTVSTDYLPQHPHRTSSLPRPNSNLFHASNSNLSRANEPPRAENLSDNIPPKVAPFGYPIQRTSIKKSFLNASCTLCDEPISNRRKGEKIIELACGHLSHQECLIISFGTTSKADVRALFPFCTKCKKDTNKAVQCIPENDELKDILISDFLIHKIPDSELSITPQSRFPPYSPLLPPFGLSYTPVERQTIYSQAPSLNPNLILAAPPKERNQIPQKKSNYTFLHSPLGHRRIPSGANSILADTSVALSANDSISAVSNSVRAKDDETKTTLPLLRSYFIQILLNNFQEELQDWRIDGDYGLLRLVDKLMISKDGQRYIQCWCFLFEDAFVIAEVDNDVDVLEIRLKNLEVFTPIANLRMTTLEASVLKCTLNKQHCADLSDLYIVQNINSDESTTVQKWISGILNQDFVFNEDNITSTLPILPIIKNFSKDVGNGRHETSTFLGLINPNKVVEVGNVHDNDTVIIRRGFTLNSGECSRQSTVDSIQSVLTTISSILSLKREKPDNLAIILQIDFTKLKEEDSLIVVYNSLKALTIKFARLQFCFVDRNNYVLDYGSVLHKIDSLDSISNLKSKSSSTQFSPIWLKNTLYPENIHEHLGIVAVSNSNMEAKKSILFQDYRCFTSFGRRRPNELKIKVGYLNVDYSDKIDELVEASSWTFVLETLCYSFGLSFDEHDDDDEEDNDDSTDNELDNSSGSLSDAESTTTIHIDSPFDNENATANMVNDRNLLTEGEHSNIENLETVASSVQPALIPNIRFSLHSEEEGTNENENENDMPVLLLSDMDKGIDGITRRSSFSSLIESGNNNCPLHMDYI
As for B1, the binding entry in assay [2] is on record as “binds”.

The record behind these values is paper PMC9048679, “Correlation Between Improved Mating Efficiency and Weakened Scaffold-Kinase Interaction in the Mating Pheromone Response Pathway Revealed by Interspecies Complementation” (Frontiers in Microbiology, 2022).
